# Data as given in patent US8715970B2, “Enzymatically catalyzed method of preparing mono-acylated polyols” (BASF SE, priority 2009, dated 2014).
# What was measured:
# Format in all cases: biochemical
# [1] = Enzyme-catalyzed acylation of 1,3-propanediol with ethyl acetate as acyl donor (Example 2)
# Procedure: (§1) Each diol was dissolved to a concentration of 20 mM together with 5 mM of 3-hexanone in ethyl acetate, ≧99% from Fluka, which was used as acyl donor and solvent. Reactions were started by adding 4 ml reaction solution to 20 mg enzyme carrier beads loaded with either wild-type or T40A mutated CALB. Reactions were run at 29° C. on a HLC rotating thermo block. Aliquots of 50 μl were taken, filtered through wool in a Pasteur pipette and diluted with 50 μl ethyl acetate prior to analysis. The 3-hexanon used as internal standard were present in the reaction solution throughout both reaction and analysis.
# (§2) 5 mM 3-hexanone was used as internal standard in the reaction mixtures together with 20 mM diol. Aliquots were taken during the reaction by taking 50 μl of reaction sample. The samples were filtered though wool together with 50 μl ethyl acetate, thereby any remaining enzyme were removed and the reaction samples were diluted by a factor of 2 prior to analysis.
# (§3) The reactions catalyzed by the T40A-mutant were rerun with 100 mg enzyme carrier beads for determination of maximum monoester yield. […]
# (§4) All reactions were analyzed on GC, Hewlett Packard 5890 series II. Two different 25 m×0.32 mm WCOT fused silica columns were used, depending on the different substrates and products that were analyzed. […]
# (§5) The response factor for each diol was determined in relationship to 3-hexanone. When all diol and mono-ester had converted to di-ester, the response factor for the di-ester could be determined in relationship to […]. The concentration of mono-ester in each reaction was determined by subtracting the concentration of di-ester from the starting concentration of diol. […]
# (§6) The reaction rates are dependent on enzyme concentrations and the kcat/KM towards the substrates. By fitting the concentrations measured over time into the equations and using the enzyme concentration determined by active site titration, the following results were obtained.
# [2] = Enzyme-catalyzed acylation of 1,2-ethanediol with ethyl acetate as acyl donor (Example 2)
# Procedure: as §1, §2, §3, §4, §5, §6
# [3] = Enzyme selectivities and specificities towards 1,2-ethanediol with vinyl acetate or vinyl butyrate in MTBE (Example 7)
# Procedure: (§7) Reactions using the CALB mutants as described in Example 5 and Example 6 were run with two different straight chain primary diols: 1,2-ethanediol, ≧99.5% from MERCK and 1,4-butanediol, ≧99% from Aldrich. Two different acyl donors were used: vinyl acetate, ≧99% from Fluka and vinyl butyrate, >99% from Fluka. Decane, ≧99% from Fluka, was used as internal standard. MTBE, 99.5% from Lab-Scan was used as solvent.
# (§8) Each diol was dissolved to a concentration of 100 mM together with 1 M of the acyl donor and 20 mM decane in MTBE. Reactions were started by adding 3 ml reaction solution to a specific amount of enzyme carrier beads. Different amounts of enzyme carrier beads were used for the different reactions. For reactions with 1,2-ethanediol and vinyl acetate, 19.7 mg wild type, 22.5 mg A282L, 50.5 mg A281V, and 45.5 A281E CALB were used. […]
# (§9) All reactions were analyzed on GC, Hewlett Packard 5890 series II. Two different 25 m×0.32 mm WCOT fused silica columns were used, depending on the different substrates and products that were analyzed. […] The response factor for each diol was determined in relationship to decane. When all diol and mono-ester had converted to di-ester, the response factor for the di-ester could be determined in relationship to decane. The concentration of mono-ester in each reaction was determined by subtracting the concentration of di-ester from the starting concentration of diol.
# [4] = Enzyme selectivities and specificities towards 1,4-butanediol with vinyl acetate or vinyl butyrate in MTBE (Example 7)
# Procedure: as §7, §8, §9
Molecule,"ΔΔG, diol-monoester [1] [kcal/mol]","ΔΔΔG, T40A-WT [1] [kcal/mol]","ΔΔG, diol-monoester [2] [kcal/mol]","ΔΔΔG, T40A-WT [2] [kcal/mol]",ΔΔG ([3]; vinyl acetate) [kcal/mol],ΔΔG ([3]; vinyl butyrate) [kcal/mol],ΔΔG ([4]; vinyl acetate) [kcal/mol],ΔΔG ([4]; vinyl butyrate) [kcal/mol]
T40A: CALB mutant with single mutation Thr40Ala (SEQ ID NO: 4),0.526,0.574,1.22,0.837,–,–,–,–
"WT: non-mutated Candida antarctica lipase B (CALB), SEQ ID NO: 2, immobilized on carrier beads (protein, listed as Candida antarctica, immobilized on carrier beads) LPSGSDPAFSQPKSVLDAGLTCQGASPSSVSKPILLVPGTGTTGPQSFDSNWIPLSAQLGYTPCWISPPPFMLNDTQVNTEYMVNAITTLYAGSGNNKLPVLTWSQGGLVAQWGLTFFPSIRSKVDRLMAFAPDYKGTVLAGPLDALAVSAPSVWQQTTGSALTTALRNAGGLTQIVPTTNLYSATDEIVQPQVSNSPLDSSYLFNGKNVQAQAVCGPLFVIDHAGSLTSQFSYVVGRSALRSTTGQARSADYGITDCNPLPANDLTPEQKVAAAALLAPAAAAIVAGPKQNCEPDLMPYARPFAVGKRTCSGIVTP",-0.0406,–,0.382,–,0.14,-0.406,-0.454,-0.406
